# Percent effect of library compounds

From ChEMBL document CHEMBL3988442, “University of Dundee, Small-Polar-MMV Screening Library” (2021).

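Phenotypic screen: M. tuberculosis growth, glucose 7H9 medium, 3 days; the read-out is not stated. Tested at 500 µM. Direction is inferred from retests: higher values go with more growth inhibition. Of about 18,000 compounds tested this way, about 1,400 (7.9%) reached 50% or more in at least one test.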

Each number is a percent effect as filed.
The record does not define 0% and 100%; most values in the screen are far below 50% and negative numbers occur (in some assays of this library far below -100).
This is an unselected part of the compounds tested.

compound,Percent Effect
Cc1cccc(C(=O)N2CCCC(O)(CO)C2)n1 (configuration not stated),-3.357
CC(NS(C)(=O)=O)C(=O)NCc1nnc2n1CCCC2 (configuration not stated),5.57
CN(C)Cc1ccc(C(=O)NCCCc2ccco2)o1,45.89
O=C(CCC(=O)Nc1ccccc1)NCCO,0.1818
N#CCCN1C(=O)c2cc(Cl)c(Cl)cc2C1=O,-3.507
O=C(NCCN1CCCCCC1=O)c1ccco1,31.35
CNc1ncccc1OC,2.575
O=C(CCN1CCCC(O)C1)N1CCc2ccccc21 (configuration not stated),-7.817
CCN1CCCC1CNC(=O)C(C)(C)C (configuration not stated),-4.794
CCN(CC)C(=O)Nc1cc(C(N)=O)ccc1C,16.27
CN(C)c1ncccc1CNC(=O)CC1C=CCC1 (configuration not stated),29.36
N#Cc1cnc2c(c1)OCCO2,-0.356
Cc1ccc(CN(C)C(=O)NCCNS(C)(=O)=O)cc1,15.99
O=C(NC1COc2ccccc21)c1ccc(=O)[nH]c1 (configuration not stated),2.794
CN(C)C(=O)c1ccc(O)cc1,5.538
CCn1cc(NC(=O)NCc2ccoc2)nn1,13.37
CC(O)CN(C)c1ncc(Br)cn1 (configuration not stated),18.34
CCCc1nc(C(=O)NCC2(O)CCCNCC2)cs1 (configuration not stated),7.73
CNCC(=O)N1CCC(Oc2ccccc2C)CC1,48.18
Cc1ccc(CCC(=O)Nc2ncnn2C)o1,-5.253
COC(=O)[C@@H](C)NC1CCN(c2ccccn2)CC1,15.68
COC(=O)Cc1nc2ccccc2[nH]1,-3.715
Cc1cc(C(=O)N2C[C@@H](CO)[C@H](N(C)C)C2)on1,7.206
COCCN1CCCN(C(=O)C(C)S(C)(=O)=O)CC1 (configuration not stated),10.29
CCCC1c2nccn2CCCN1C(=O)c1cnco1 (configuration not stated),10.5
O=C(NCc1ccncc1)NCC1CCN(C2CC2)C1 (configuration not stated),35.26
OC1(Cc2ccccn2)CCNCC1,1.272
CNC(=O)C1CCCCN1Cc1cc(OC)ccn1 (configuration not stated),-5.974
Nc1ccc(N2CCNCC2=O)cn1,-107.4
OCc1ccncc1NCC1CCOCC1,-0.01332
Cc1nc(NC(=O)c2cccs2)sc1C(=O)N(C)C,23.34
CC1(c2ccccc2)COCCN1 (configuration not stated),6.38
Cc1nn(-c2ccccc2)c(C)c1C(=O)N(C)C,-14.09
COCCCC1(CO)CCCN(Cc2cncnc2)C1 (configuration not stated),8.066
CN(C)c1ccc(CNC(=O)c2ccc(O)nc2)cn1,-1.952
CC(c1cccnc1)N(C)C(=O)c1cncc(F)c1 (configuration not stated),12.22
CC(=O)c1ccc(C(=O)NCC(C)CO)cc1 (configuration not stated),-5.719
O=C(OCCC1CCCO1)c1ccncc1 (configuration not stated),23.29
CSc1nnc(N2CCOCC2)n1Cc1ccccc1,14.3
CCc1nccn1CC(=O)NCCCc1csc(N)n1,11.67
NS(=O)(=O)c1ccc(OCC(F)(F)F)cc1,18.59
CS(=O)(=O)N1CCN(Cc2cccc(Br)c2)CC1,4.59
O=C(c1cnccn1)N1CCN(Cc2ccsc2)CC1,15.57
CC(C)(O)CNCc1ccccc1,-6.695
CSCC1CCN(CC(=O)Nc2ccn(C)n2)CC1,12.53
CC(C)(C)c1nnc(CN)s1,27.07
CCCN1CCC(NC(=O)C2CCC2)CC1,-3.596
COc1cccc2c1CCNCC2,69.93
CN(CCO)c1ccnc(C#N)c1,-1.928
Cc1ccc(F)c(S(=O)(=O)NC[C@@H]2CCNC[C@H]2O)c1,16.05
CCC(NC(=O)c1ccc(=O)[nH]c1)c1nc(C)c(C)s1 (configuration not stated),0.9446
CC(C)N1CCC(C(=O)NCCc2cnccn2)CC1,9.983
O=C(CN1CCCC1c1ccsc1)N1CCOCC1 (configuration not stated),29.32
CCN(CC)CCOC1CCNC1 (configuration not stated),-11.82
Cc1cc(NC(C)C(N)=O)nn1-c1cccc(Cl)c1 (configuration not stated),-2.246
CNS(=O)(=O)c1cccc2nonc12,9.853
COc1ccc(NC(=O)NC(C)Cn2ccnc2)cn1 (configuration not stated),-60.6
CCOCC(=O)N(Cc1ccc(O)c(OC)c1)C1CC1,3.9
Cc1cc(C)n(CC(C)CN)n1 (configuration not stated),16.29
Cc1ccc(NC(=O)CN2CCN(C)CC2)c(Br)c1,0.1307
CC(Cn1cncn1)NCc1ccsc1 (configuration not stated),25.92
NCc1cccc(N2CCCS2(=O)=O)c1,14.9
CS(=O)(=O)c1cccc(CO)c1,2.647
Cc1cc(C2CCC2)nc(N2CCNC(=O)C2)n1,64.52
CCO[C@H]1CN(Cc2csc(C(C)=O)c2)C[C@@H]1O,20
COCCc1noc(Cn2cc(I)cn2)n1,13.4
CC(=O)Nc1nc(C(=O)NC2(C)CCS(=O)(=O)C2)cs1 (configuration not stated),-5.027
CCOc1ccc(C(=O)N(C)C2CCN(C)C2=O)cc1 (configuration not stated),-7.184
Cc1nccn1CCN(C)Cc1cc2n(n1)CCNC2,-5.377
OCC1(CNC2CCCSC2)CCOCC1 (configuration not stated),2.258
Cc1noc(C)c1CN1CCCCC1C(N)=O (configuration not stated),-2.804
CN(CCCOc1ccccc1)CC(=O)NC(N)=O,-5.998
CN1CCN(C(=O)CSc2ncccn2)CC1,4.899
COC1(CO)CCOC1 (configuration not stated),9.944
COCCn1ccnc1CN1C[C@H]2CNC[C@H]2C1,-6.866
CCNC(=O)c1ccc(CN)cc1,3.835
O=C(CCN1CCCC1c1ccsc1)N1CCOCC1 (configuration not stated),30.75

Once more, the final 5:

For CN1CCN(C(=O)CSc2ncccn2)CC1 the result was 4.899%.
For COC1(CO)CCOC1 (configuration not stated) the result was 9.944%.
For COCCn1ccnc1CN1C[C@H]2CNC[C@H]2C1 the result was -6.866%.
For CCNC(=O)c1ccc(CN)cc1 the result was 3.835%.
For O=C(CCN1CCCC1c1ccsc1)N1CCOCC1 (configuration not stated) the result was 30.75%.